Taken from: PubChem BioAssay AID743121 (NCATS, 2013)
Purpose: 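Genes whose silencing strengthens cell killing by camptothecin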 (primary screen). System: MDA-MB-231 cells, a human breast cancer line. Reagent: single siRNA against human genes, 20 nM siRNA (0.8 pmol per well). Timing: 120 h (drug added 48 h after transfection, read 72 h later). Conditions: camptothecin 20 nM (about EC30) for 72 h; vehicle 0.1% DMSO in parallel plates. Measurement: 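CellTiter-Glo ATP signal, scaled to control siRNA as percent viability; sensitisation given as log2 of untreated divided by camptothecin-treated viability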. Reading the numbers: log2 vehicle/camptothecin viability: higher = stronger sensitisation to camptothecin; viability with camptothecin and viability without drug: higher = more viable cells. Active means: 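Active genes have an RSA gene-level p-value below 0.001, computed from the ratios of their separate siRNAs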.
The whole screen tested about 26,000 reagents; shown is an unselected part. 167 of all reagents (0.63%) count as active. 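Calls are per gene from RSA p-values that are not deposited; an individual active-marked siRNA can sensitise only weakly.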 Reagents against one gene are numbered here.

target gene | reagent | log2 vehicle/camptothecin viability | viability with camptothecin (% of control) | viability without drug (% of control) | Call
NETO2 (GeneID 81831) | 1 | 0.0256 | 86 | 87.5 | inactive
NETO2 (GeneID 81831) | 2 | -0.0865 | 81.3 | 76.6 | inactive
NETO2 (GeneID 81831) | 3 | -0.0904 | 101 | 94.9 | inactive
NETO2 (GeneID 81831) | 4 | -0.0836 | 90.7 | 85.6 | inactive
S1PR1 (GeneID 1901) | 1 | -0.148 | 90.9 | 82.1 | inactive
S1PR1 (GeneID 1901) | 2 | -0.128 | 114 | 104 | inactive
S1PR1 (GeneID 1901) | 3 | 0.00779 | 98.4 | 98.9 | inactive
S1PR1 (GeneID 1901) | 4 | 0.0719 | 89.6 | 94.2 | inactive
CD80 (GeneID 941) | 1 | -0.119 | 111 | 102 | inactive
CD80 (GeneID 941) | 2 | -0.0711 | 94.3 | 89.8 | inactive
CD80 (GeneID 941) | 3 | 0.0433 | 44 | 45.4 | inactive
MEP1A (GeneID 4224) | 1 | -0.0797 | 99.4 | 94.1 | inactive
MEP1A (GeneID 4224) | 2 | -0.0168 | 78.6 | 77.7 | inactive
MEP1A (GeneID 4224) | 3 | 0.0235 | 105 | 107 | inactive
MEP1A (GeneID 4224) | 4 | -0.174 | 99.9 | 88.5 | inactive
ALDH1A2 (GeneID 8854) | 1 | -0.224 | 134 | 115 | inactive
ALDH1A2 (GeneID 8854) | 2 | -0.132 | 49.5 | 45.1 | inactive
ALDH1A2 (GeneID 8854) | 3 | 0.0242 | 62.2 | 63.2 | inactive
ALDH1A2 (GeneID 8854) | 4 | -0.098 | 96.6 | 90.2 | inactive
ALDH1A2 (GeneID 8854) | 5 | -0.242 | 102 | 86.4 | inactive
ALDH1A2 (GeneID 8854) | 6 | 0.853 | 30.7 | 55.4 | inactive
MAPKBP1 (GeneID 23005) | 1 | -0.177 | 106 | 93.8 | inactive
MAPKBP1 (GeneID 23005) | 2 | -0.437 | 102 | 75.4 | inactive
MAPKBP1 (GeneID 23005) | 3 | -0.285 | 102 | 83.8 | inactive
MAPKBP1 (GeneID 23005) | 4 | -0.00354 | 77.8 | 77.6 | inactive
PECR (GeneID 55825) | 1 | -0.111 | 116 | 107 | inactive
PECR (GeneID 55825) | 2 | -0.428 | 87.3 | 64.9 | inactive
PECR (GeneID 55825) | 3 | 0.00386 | 83 | 83.3 | inactive
PECR (GeneID 55825) | 4 | -0.297 | 94.1 | 76.6 | inactive
PREP (GeneID 5550) | 1 | 0.757 | 27.9 | 47.1 | inactive
PREP (GeneID 5550) | 2 | -0.0836 | 109 | 103 | inactive
PREP (GeneID 5550) | 3 | -0.314 | 91.8 | 73.8 | inactive
PREP (GeneID 5550) | 4 | 0.146 | 48.6 | 53.8 | inactive
RPA4 (GeneID 29935) | 1 | -0.0935 | 71.6 | 67.1 | inactive
RPA4 (GeneID 29935) | 2 | -0.0708 | 98.1 | 93.4 | inactive
RPA4 (GeneID 29935) | 3 | -0.56 | 81.7 | 55.4 | inactive
RPA4 (GeneID 29935) | 4 | -0.0664 | 83.6 | 79.9 | inactive
ITGA5 (GeneID 3678) | 1 | -0.0728 | 63.8 | 60.6 | inactive
ITGA5 (GeneID 3678) | 2 | -0.342 | 26.8 | 21.2 | inactive
ITGA5 (GeneID 3678) | 3 | -0.057 | 101 | 97.5 | inactive
ITGA5 (GeneID 3678) | 4 | 0.164 | 21.6 | 24.2 | inactive
PDIA6 (GeneID 10130) | 1 | 0.114 | 55.9 | 60.5 | inactive
PDIA6 (GeneID 10130) | 2 | 0.012 | 78.1 | 78.8 | inactive
PDIA6 (GeneID 10130) | 3 | 0.303 | 24.4 | 30.2 | inactive
PDIA6 (GeneID 10130) | 4 | 0.0509 | 88.2 | 91.3 | inactive
SULF1 (GeneID 23213) | 1 | 0.114 | 84 | 90.9 | inactive
SULF1 (GeneID 23213) | 2 | 0.199 | 34.4 | 39.5 | inactive
SULF1 (GeneID 23213) | 3 | 0.195 | 75.8 | 86.8 | inactive
ADGRA3 (GeneID 166647) | 1 | -0.337 | 95.9 | 75.9 | inactive
ADGRA3 (GeneID 166647) | 2 | -0.0625 | 90 | 86.2 | inactive
ADGRA3 (GeneID 166647) | 3 | -0.227 | 100 | 85.6 | inactive
ADGRA3 (GeneID 166647) | 4 | -0.355 | 71.5 | 55.9 | inactive
CLEC4M (GeneID 10332) | 1 | -0.371 | 77.9 | 60.3 | inactive
CLEC4M (GeneID 10332) | 2 | -0.0272 | 82.7 | 81.2 | inactive
CLEC4M (GeneID 10332) | 3 | -0.288 | 62.9 | 51.5 | inactive
CLEC4M (GeneID 10332) | 4 | 0.324 | 41.6 | 52.1 | inactive
ITM2B (GeneID 9445) | 1 | 0.489 | 79 | 111 | inactive
ITM2B (GeneID 9445) | 2 | 0.0866 | 83.3 | 88.5 | inactive
ITM2B (GeneID 9445) | 3 | -0.106 | 51.5 | 47.8 | inactive
ITM2B (GeneID 9445) | 4 | 0.0296 | 83.8 | 85.6 | inactive
TYMS (GeneID 7298) | 1 | -0.117 | 111 | 103 | inactive
TYMS (GeneID 7298) | 2 | 0.039 | 98 | 101 | inactive
TYMS (GeneID 7298) | 3 | -1.06 | 118 | 56.4 | inactive
TYMS (GeneID 7298) | 4 | -0.527 | 66.8 | 46.3 | inactive
TCL1A (GeneID 8115) | 1 | -0.311 | 84.4 | 68 | inactive
TCL1A (GeneID 8115) | 2 | 0.137 | 91.3 | 100 | inactive
TCL1A (GeneID 8115) | 3 | -0.182 | 79.5 | 70 | inactive
TCL1A (GeneID 8115) | 4 | -0.118 | 86.3 | 79.5 | inactive
